Reference: patent publication US10792257B2, “Pharmaceutical compositions comprising safinamide” (Zambon S.P.A., priority 2016, dated 2020)

Experiment: Organoleptic characteristics of the active ingredient as noted by the inventors
Conditions: unmasked active ingredient

Structure (SMILES): C[C@H](NCc1ccc(OCc2cccc(F)c2)cc1)C(N)=O [safinamide methanesulfonate, Safinamide methanesulfonate]
- taste: unpleasant taste, with a bitter component that is decidedly very intense, astringent
